{"source": "paper PMC7375649", "about": "“Varicella zoster virus encodes a viral decoy RHIM to inhibit cell death” (PLoS Pathogens, 2020)", "binders": {"B1": {"name": "YPet-ZBP1_(170-355) (domain or fragment)", "chain": "SGRRAKSASIIYQHNPINMICQNGPNSWISIANSEAIQIGHGNIITRQTVSREDGSAGPRHLPSMAPGDSSTWGTLVDPWGPQDIHMEQSILRRVQLGHSNEMRLHGVPSEGPAHIPPGSPPVSATAAGPEASFEARIPSPGTHPEGEAAQRIHMKSCFLEDATIGNSNKMSISPGVAGPGGVAGS", "notes": "human ZBP1, RHIM-containing region, residues 170-355; also called YPet-ZBP1 RHIM; source: E. coli BL21(DE3) pLysS, purified from inclusion bodies under denaturing conditions (Ni-NTA)"}}, "molecular_target": "YPet-ZBP1_(170-355) (human) (UniProt Q9H171)", "test": "sodium dodecyl sulfate agarose gel electrophoresis (SDS-AGE); as a8, but assembled samples incubated with 2% SDS at room temperature for 10 min before electrophoresis; both purified", "note": "No constants are given. Whether binding was seen depends on the method and setting.", "data": [{"binder": "B1", "values": [{"measurement": "binding", "result": "no binding (condition: incubation with 2% SDS for 10 min)"}]}]}
